Test results reported in PubChem BioAssay AID504834 (National Center for Advancing Translational Sciences (NCATS), 2011).
The campaign covered roughly 320,000 compounds. About 22,000 (6.9%) were called active. The inconclusive results got no clear call from the source; some entries with a clear call stand among them for comparison. The call rests on the fitted dose curve; in most records, active means well fitted inhibition curve with a large enough effect; inconclusive means small, poorly fitted or top-dose-only effect, or another doubt; inactive means no such curve, though single readings can be large or run the other way. A potency beside an inconclusive call is a rough fit, not a confirmed value.
On the % scale 0 is the no-effect control and ±100 the full control effect; potency means the concentration at half of the fitted maximal effect.

Test: Primary qHTS for delayed death inhibitors of the malarial parasite plastid, 96 hour incubation
Conditions: P. falciparum luciferase reporter growth; series mostly up to 28.7 µM; activity change, negative = inhibition: at the top concentration
Summary of the method: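 P. falciparum expressing integrated firefly luciferase, in erythrocytes at 2% hematocrit, 0.05% parasitemia, incubated with compounds 96 h at 37 C, 5% CO2. Growth inhibition read as loss of luminescence; two-generation exposure targets delayed-death apicoplast inhibitors.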
With `Cc1ccc(SCC(=O)Nc2ccccc2N2CCOCC2)cc1` the Potency was inconclusive: 18.5 µM [inhibitor, single point]. In the case of `CCCc1cc(=O)oc2cc(OC3CCCCC3=O)ccc12` (stereo not drawn), the “activity change, negative = inhibition” value is reported as inactive: 4.15%. For `COc1ccc(C(=O)NNS(=O)(=O)c2ccccc2)cc1`, the Potency was inconclusive: 11.7 µM [inhibitor, single point]. For `COc1cccc(CNC(=O)Cc2csc(NC(=O)Nc3ccccc3OC)n2)c1`, the Potency was inconclusive: 18.5 µM [inhibitor, single point]. In the case of `Cc1cc(C)nc(NS(=O)(=O)c2ccc(N3C(=O)c4ccccc4C3=O)cc2)n1`, the Potency is reported as inconclusive: 4.15 µM [inhibitor, single point]. For `CCC1(C)Cc2ccccc2C(Nc2c(C)n(C)n(-c3ccccc3)c2=O)=N1` (stereo not drawn), the Potency was inconclusive: 5.22 µM [inhibitor, partial curve, poor fit]. With `COC(=O)CCC(=O)NC(=S)Nc1ccc(S(=O)(=O)N2CCCC2)cc1` the “activity change, negative = inhibition” value was inactive: 22.4%. For `CC1CC(C)CN(S(=O)(=O)c2ccc(NC(=O)C3CSC4(C)CCC(=O)N34)cc2)C1` (stereo not drawn), the Potency was active: 9.28 µM. With `COC(=O)CNC(=O)C(Cc1c[nH]c2ccccc12)NC(=O)OC(C)(C)C` (stereo not drawn) the Potency was inconclusive: 4.65 µM [inhibitor, partial curve]. For `COCCNC(=O)Cn1cnc2c1c(=O)n(C)c(=O)n2C`, the Potency was inconclusive: 9.28 µM [inhibitor, partial curve, poor fit]. With `Cc1ccc(C)c(CN2CCCN(C(=O)Cn3ncc4c3-c3ccccc3OC4)C2)c1` the Potency was inconclusive: 2.08 µM [inhibitor, partial curve, poor fit]. In the case of `COc1cc(-n2c(N)c(C(=O)NCc3ccco3)c3nc4ccccc4nc32)cc(OC)c1OC`, the Potency is reported as active: 13.1 µM. With `CC1(C)CC(Nc2ccc(Nc3ccccc3)cc2)CC(C)(C)N1` the Potency was active: 7.38 µM. For `CCCCc1ccc(Nc2nc(N3CCOCC3)nc(N3CCOCC3)n2)cc1`, the Potency was inconclusive: 7.38 µM [inhibitor, partial curve]. In the case of `Cc1ccccc1-n1c(CSC(=N)N)nc2ccccc2c1=O`, the activity change, negative = inhibition is reported as inactive: 2.57% [at 5.75 µM]. In the case of `Cc1ccc(CCNC(=O)C2CCN(S(=O)(=O)N3CCC4(CC3)OCCO4)CC2)cc1`, the Potency is reported as inconclusive: 18.5 µM [inhibitor, single point]. In the case of `Cc1c(Br)c([N+](=O)[O-])nn1CCCC(=O)Nc1sc2c(c1C(N)=O)CCC(C)C2` (stereo not drawn), the Potency is reported as inconclusive: 10.4 µM [inhibitor, single point]. In the case of `CC(C)[C@@H](CO)NC(=O)c1ccc2c3n(nc2c1)-c1ccc(Cl)cc1CO3`, the “activity change, negative = inhibition” value is reported as inactive: 144%.
